The supplement of paper PMC10849652
The other results are listed elsewhere or left out.

Amino acid sequences for entries named in this document (tags omitted). A change or cut given only in a name is not applied to a line headed by its entry.
UniProt Q9Y5Y5: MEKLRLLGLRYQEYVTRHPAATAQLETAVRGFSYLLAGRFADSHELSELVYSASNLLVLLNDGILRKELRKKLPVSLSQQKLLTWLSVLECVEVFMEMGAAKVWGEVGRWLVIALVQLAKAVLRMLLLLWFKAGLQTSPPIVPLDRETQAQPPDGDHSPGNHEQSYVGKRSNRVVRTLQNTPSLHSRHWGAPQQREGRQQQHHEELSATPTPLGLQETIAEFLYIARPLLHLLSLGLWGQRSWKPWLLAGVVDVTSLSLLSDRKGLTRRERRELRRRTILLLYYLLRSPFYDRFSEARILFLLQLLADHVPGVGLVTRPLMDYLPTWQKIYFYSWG
UniProt P46019: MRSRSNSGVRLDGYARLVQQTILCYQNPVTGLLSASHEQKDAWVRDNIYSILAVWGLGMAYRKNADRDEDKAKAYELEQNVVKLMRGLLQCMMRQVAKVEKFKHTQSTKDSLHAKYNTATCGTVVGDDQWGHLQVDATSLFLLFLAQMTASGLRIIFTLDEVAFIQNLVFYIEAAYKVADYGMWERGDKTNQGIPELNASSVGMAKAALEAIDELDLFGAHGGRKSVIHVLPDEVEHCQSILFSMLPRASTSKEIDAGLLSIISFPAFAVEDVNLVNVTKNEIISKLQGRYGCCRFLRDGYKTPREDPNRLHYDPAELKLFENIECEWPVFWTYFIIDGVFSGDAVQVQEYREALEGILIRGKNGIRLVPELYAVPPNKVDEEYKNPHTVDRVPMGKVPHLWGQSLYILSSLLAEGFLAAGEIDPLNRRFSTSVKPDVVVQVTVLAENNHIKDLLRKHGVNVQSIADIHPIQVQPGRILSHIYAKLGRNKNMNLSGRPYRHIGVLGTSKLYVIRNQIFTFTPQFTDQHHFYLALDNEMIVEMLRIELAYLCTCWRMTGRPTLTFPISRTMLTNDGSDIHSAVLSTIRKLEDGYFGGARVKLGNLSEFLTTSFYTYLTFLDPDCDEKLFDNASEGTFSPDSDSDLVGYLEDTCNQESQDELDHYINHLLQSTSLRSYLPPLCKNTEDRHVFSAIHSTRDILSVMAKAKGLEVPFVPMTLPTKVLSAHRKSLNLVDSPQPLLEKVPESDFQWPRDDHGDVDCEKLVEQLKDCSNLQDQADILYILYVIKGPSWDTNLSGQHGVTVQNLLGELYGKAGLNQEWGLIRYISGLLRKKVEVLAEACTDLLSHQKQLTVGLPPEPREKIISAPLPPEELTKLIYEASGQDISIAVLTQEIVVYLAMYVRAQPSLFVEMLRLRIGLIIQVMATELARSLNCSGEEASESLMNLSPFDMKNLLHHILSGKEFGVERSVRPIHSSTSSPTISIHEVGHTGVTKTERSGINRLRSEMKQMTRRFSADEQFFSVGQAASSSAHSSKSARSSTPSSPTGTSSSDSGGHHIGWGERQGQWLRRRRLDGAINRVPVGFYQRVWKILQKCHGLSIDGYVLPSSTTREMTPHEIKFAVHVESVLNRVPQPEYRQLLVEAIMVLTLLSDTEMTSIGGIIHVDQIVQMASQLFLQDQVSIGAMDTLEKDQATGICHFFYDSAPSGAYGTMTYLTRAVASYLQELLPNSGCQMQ
UniProt Q8TBX8: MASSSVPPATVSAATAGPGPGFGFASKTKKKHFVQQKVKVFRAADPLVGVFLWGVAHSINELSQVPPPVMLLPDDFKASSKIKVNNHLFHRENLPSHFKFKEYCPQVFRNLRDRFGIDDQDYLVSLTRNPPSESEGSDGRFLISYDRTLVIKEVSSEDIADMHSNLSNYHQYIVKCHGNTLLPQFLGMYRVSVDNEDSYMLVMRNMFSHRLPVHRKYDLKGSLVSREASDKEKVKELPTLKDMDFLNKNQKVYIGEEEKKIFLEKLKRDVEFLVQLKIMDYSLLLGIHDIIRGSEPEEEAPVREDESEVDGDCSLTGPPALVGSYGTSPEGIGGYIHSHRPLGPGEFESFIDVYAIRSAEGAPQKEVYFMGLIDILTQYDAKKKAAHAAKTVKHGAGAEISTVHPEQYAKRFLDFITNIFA
UniProt O15173: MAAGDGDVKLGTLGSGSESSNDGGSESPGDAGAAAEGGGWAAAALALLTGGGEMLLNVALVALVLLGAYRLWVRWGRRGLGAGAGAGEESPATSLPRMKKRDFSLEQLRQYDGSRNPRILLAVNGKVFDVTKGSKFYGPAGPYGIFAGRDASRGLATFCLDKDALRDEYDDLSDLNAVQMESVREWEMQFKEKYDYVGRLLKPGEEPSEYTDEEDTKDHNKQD
UniProt P08237: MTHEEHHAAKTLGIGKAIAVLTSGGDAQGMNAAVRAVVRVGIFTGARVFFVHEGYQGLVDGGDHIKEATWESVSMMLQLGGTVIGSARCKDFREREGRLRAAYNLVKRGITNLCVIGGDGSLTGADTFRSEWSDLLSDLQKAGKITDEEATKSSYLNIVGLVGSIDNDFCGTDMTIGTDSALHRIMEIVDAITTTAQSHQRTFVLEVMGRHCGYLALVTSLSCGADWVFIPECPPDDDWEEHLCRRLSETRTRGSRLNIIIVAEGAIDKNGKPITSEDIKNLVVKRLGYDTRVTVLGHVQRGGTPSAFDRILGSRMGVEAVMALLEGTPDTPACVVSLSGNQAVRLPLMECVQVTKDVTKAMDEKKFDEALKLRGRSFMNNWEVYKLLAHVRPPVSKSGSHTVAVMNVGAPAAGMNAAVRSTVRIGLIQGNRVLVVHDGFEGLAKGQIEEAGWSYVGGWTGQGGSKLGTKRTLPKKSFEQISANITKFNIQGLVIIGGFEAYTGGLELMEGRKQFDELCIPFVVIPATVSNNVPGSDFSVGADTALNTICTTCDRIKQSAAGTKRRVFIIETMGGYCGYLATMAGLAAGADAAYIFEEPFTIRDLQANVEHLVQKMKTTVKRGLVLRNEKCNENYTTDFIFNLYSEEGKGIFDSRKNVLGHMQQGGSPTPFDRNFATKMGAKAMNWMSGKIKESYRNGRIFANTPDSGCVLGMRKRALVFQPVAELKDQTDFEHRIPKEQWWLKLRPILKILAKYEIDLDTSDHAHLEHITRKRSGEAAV
UniProt P15735: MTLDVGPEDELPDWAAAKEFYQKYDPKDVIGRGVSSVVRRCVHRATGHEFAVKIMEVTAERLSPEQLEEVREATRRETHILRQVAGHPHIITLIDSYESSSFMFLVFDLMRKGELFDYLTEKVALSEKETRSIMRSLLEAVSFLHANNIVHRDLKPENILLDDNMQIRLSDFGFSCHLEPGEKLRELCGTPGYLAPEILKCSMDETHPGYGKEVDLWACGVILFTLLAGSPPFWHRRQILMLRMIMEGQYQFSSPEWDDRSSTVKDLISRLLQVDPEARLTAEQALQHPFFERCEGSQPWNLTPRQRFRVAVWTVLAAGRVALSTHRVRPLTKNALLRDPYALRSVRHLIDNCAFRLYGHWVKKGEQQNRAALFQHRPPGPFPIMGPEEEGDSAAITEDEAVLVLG
UniProt Q9NQP4, whole entry, looked up: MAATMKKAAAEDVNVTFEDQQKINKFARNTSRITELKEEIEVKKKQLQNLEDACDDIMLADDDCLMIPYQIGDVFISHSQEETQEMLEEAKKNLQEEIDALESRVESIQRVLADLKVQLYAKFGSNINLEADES
UniProt Q13492: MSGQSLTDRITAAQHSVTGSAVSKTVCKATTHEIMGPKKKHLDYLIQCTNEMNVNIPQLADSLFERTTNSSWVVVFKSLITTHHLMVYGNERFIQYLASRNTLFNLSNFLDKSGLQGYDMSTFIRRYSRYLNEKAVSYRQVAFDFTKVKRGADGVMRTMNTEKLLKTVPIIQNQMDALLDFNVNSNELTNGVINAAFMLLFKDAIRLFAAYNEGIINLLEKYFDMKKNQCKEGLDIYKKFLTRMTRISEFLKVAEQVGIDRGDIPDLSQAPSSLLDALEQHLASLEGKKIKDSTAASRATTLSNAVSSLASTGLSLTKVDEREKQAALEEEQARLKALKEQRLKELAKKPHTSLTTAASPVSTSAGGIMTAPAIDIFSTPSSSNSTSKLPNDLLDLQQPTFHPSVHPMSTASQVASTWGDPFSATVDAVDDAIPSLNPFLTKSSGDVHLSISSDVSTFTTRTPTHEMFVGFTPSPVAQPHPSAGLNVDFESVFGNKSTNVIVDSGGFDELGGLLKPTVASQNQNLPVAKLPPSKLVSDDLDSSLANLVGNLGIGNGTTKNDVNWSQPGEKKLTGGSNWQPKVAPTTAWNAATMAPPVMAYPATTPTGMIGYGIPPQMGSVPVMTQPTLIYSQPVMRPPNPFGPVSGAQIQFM
UniProt Q96HS1, whole entry, looked up: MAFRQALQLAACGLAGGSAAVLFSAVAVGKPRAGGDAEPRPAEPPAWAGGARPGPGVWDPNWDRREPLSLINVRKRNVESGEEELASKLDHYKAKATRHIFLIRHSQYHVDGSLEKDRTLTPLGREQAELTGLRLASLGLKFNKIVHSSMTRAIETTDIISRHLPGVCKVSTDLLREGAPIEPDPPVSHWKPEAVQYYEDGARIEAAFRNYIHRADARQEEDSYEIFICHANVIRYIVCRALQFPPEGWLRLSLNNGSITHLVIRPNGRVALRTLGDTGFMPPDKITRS
UniProt P53609, whole entry, looked up: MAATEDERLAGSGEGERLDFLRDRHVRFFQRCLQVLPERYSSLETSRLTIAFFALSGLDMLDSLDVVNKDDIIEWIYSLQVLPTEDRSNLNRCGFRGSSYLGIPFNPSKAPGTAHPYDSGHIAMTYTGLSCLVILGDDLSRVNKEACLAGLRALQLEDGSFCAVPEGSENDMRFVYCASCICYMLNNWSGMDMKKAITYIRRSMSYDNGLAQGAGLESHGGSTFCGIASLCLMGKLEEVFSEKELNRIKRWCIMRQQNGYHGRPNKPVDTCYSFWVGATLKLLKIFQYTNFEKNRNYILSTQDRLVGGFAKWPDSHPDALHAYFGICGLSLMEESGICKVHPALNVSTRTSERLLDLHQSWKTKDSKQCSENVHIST
UniProt P30613: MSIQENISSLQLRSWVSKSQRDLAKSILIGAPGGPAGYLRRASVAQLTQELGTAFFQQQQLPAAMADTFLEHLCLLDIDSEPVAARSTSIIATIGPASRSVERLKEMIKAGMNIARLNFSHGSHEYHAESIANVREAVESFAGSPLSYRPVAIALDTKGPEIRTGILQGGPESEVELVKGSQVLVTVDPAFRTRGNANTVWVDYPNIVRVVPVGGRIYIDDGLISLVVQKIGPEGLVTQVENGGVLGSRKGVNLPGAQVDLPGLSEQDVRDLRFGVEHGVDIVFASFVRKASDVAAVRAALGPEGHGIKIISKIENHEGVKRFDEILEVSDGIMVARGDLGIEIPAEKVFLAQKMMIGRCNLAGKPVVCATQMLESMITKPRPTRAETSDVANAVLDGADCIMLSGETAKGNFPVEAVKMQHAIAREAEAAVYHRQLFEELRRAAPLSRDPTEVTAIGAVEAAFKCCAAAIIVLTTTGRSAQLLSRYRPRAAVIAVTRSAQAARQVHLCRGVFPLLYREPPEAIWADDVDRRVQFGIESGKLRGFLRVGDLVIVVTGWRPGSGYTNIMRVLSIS
UniProt Q9BTU6: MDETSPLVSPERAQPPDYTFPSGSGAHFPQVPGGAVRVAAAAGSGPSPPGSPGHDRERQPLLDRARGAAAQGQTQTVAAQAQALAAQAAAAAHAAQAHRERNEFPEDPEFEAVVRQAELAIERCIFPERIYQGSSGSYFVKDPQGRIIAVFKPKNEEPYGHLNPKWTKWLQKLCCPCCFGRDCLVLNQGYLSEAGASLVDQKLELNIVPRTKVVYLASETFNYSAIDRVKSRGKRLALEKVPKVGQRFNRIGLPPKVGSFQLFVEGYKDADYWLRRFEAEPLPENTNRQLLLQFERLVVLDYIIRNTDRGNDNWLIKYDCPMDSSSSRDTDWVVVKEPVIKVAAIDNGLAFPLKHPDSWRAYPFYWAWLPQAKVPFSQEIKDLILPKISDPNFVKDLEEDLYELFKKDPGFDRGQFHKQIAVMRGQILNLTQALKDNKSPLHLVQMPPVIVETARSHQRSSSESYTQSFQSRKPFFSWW
UniProt P14618, whole entry, looked up: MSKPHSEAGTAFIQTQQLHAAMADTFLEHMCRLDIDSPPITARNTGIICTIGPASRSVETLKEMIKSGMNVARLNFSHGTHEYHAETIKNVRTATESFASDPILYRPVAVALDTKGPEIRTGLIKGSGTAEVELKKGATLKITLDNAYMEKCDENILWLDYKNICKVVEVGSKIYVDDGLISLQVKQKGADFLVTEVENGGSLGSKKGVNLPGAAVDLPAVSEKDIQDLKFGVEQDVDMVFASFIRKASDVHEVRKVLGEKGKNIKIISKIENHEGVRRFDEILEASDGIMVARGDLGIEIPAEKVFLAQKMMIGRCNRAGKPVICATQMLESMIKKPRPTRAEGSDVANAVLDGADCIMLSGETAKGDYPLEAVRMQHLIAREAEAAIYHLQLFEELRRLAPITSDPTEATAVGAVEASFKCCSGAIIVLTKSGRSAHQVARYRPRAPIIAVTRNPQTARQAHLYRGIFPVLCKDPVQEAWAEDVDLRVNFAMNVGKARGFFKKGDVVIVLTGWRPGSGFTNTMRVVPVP
UniProt Q9Y237, whole entry, looked up: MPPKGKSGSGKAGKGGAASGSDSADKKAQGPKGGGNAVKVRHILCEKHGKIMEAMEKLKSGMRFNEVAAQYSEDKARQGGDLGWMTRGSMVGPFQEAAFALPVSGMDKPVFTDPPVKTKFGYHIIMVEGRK

Tests used:
Experiment in all cases: log2 fold change, soluble protein after heating vs DMSO (PISA); higher = thermal stabilisation; K562 cells, 10 uM, 30 min; active = over 0.2 and 3.5 SD of the protein, either way, in both replicates (recomputed)
[1] = compound: NC(=O)Nc1cc(-c2cccc(F)c2)sc1C(=O)N[C@H]1CCCNC1
In short: (§1)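 Thermal stability values are relative to control samples and come from duplicates. They are expressed as log2 fold changes. For measurement, K562 cells (2×10^6 cells/mL) received 10 μM compound for 30 min, and aliquots were heated for 3 min over 48°C-58°C, pooled, and extracted at 4°C in PBS with 0.5% NP-40. Soluble protein, the supernatant after 21,000xg for 90 min, was quantified by TMTpro 16plex LC-MS/MS with equalised channel sums.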

[2] = compound: NC(=O)c1cnc(N[C@@H]2CCCC[C@@H]2N)nc1Nc1cccc(-n2nccn2)c1
In short: as §1

[3] = compound: NC1(c2ccc(-c3nc4ccn5c(=O)[nH]nc5c4cc3-c3ccccc3)cc2)CCC1
In short: as §1

[4] = compound: NCC(=O)Nc1ccc(-n2nc(C(F)(F)F)cc2-c2ccc3c(ccc4ccccc43)c2)cc1
In short: as §1

entinostat = compound: Nc1ccccc1NC(=O)c1ccc(CNC(=O)OCc2cccnc2)cc1 [entinostat]
In short: as §1

vorinostat = compound: O=C(CCCCCCC(=O)Nc1ccccc1)NO [vorinostat]
In short: as §1

citarinostat = compound: O=C(CCCCCCNC(=O)c1cnc(N(c2ccccc2)c2ccccc2Cl)nc1)NO [citarinostat]
In short: as §1

silmitasertib = compound: O=C(O)c1ccc2c(c1)nc(Nc1cccc(Cl)c1)c1ccncc12 [silmitasertib]
In short: as §1

[5] = compound: O=C1NC(=O)C(c2cnc3ccccn23)=C1c1cn2c3c(cc(F)cc13)CN(C(=O)N1CCCCC1)CC2
In short: as §1

[6] = compound: c1cc(OCCN2CCCCC2)cc(-c2n[nH]c3ccc(-c4nnc[nH]4)cc23)c1
In short: as §1

Measured: log2 fold change

PEX16 isoform 2 (UniProt Q9Y5Y5)
inactive: [1] 0.061 | [2] -0.052 | [3] -0.171 | [4] -0.031 | entinostat 0.022 | vorinostat 0.115 | citarinostat 0.081 | silmitasertib -0.025 | [5] 0.033 | [6] -0.051

PIP4K2A (UniProt P48426)
inactive: [1] -0.026 | [2] 0.013 | [3] -0.086 | [4] 0.113 | entinostat 0.026 | vorinostat -0.037 | citarinostat 0.004 | silmitasertib 0.259 | [5] 0.057 | [6] -0.057

PI4KA (UniProt P42356)
inactive: [1] 0.094 | [2] 0.012 | [3] -0.06 | [4] 0.025 | entinostat -0.016 | vorinostat 0.095 | citarinostat -0.013 | silmitasertib 0.071 | [5] 0.124 | [6] -0.167

PHKA2 (UniProt P46019)
inactive: [1] 0.013 | [2] -0.112 | [3] -0.157 | [4] 0.005 | entinostat 0.13 | vorinostat 0.04 | citarinostat -0.046 | silmitasertib 0.001 | [5] -0.013 | [6] 0.065

PIP4K2C (UniProt Q8TBX8)
inactive: [1] 0.016 | [2] 0.192 | [3] -0.125 | [4] 0.293 | entinostat -0.027 | vorinostat -0.071 | citarinostat -0.036 | silmitasertib 0.497 | [5] 0.12 | [6] 0.036

PGRMC2 isoform 2 (UniProt O15173)
inactive: [1] 0.046 | [2] 0.062 | [3] 0.079 | [4] 0.073 | entinostat 0.016 | vorinostat 0.008 | citarinostat 0.017 | silmitasertib -0.024 | [5] -0.073 | [6] 0

PFDN6 (UniProt O15212)
inactive: [1] 0.031 | [2] -0.002 | [3] 0.025 | [4] 0.06 | entinostat 0.013 | vorinostat 0.018 | citarinostat 0.075 | silmitasertib -0.036 | [5] 0.062 | [6] -0.019

PFKL isoform 2 (UniProt P17858)
inactive: [1] 0.009 | [2] 0.01 | [3] 0.007 | [4] 0.009 | entinostat -0.027 | vorinostat -0.008 | citarinostat 0.038 | silmitasertib -0.014 | [5] -0.039 | [6] -0.046

PEX7 (UniProt O00628)
inactive: [1] -0.017 | [2] -0.031 | [3] -0.022 | [4] -0.03 | entinostat -0.077 | vorinostat 0.013 | citarinostat 0.074 | silmitasertib -0.017 | [5] -0.051 | [6] 0.042

PFKM isoform 3 (UniProt P08237)
inactive: [1] 0 | [2] 0 | [3] -0.032 | [4] 0 | entinostat -0.016 | vorinostat 0.011 | citarinostat 0.015 | silmitasertib 0.014 | [5] -0.03 | [6] -0.007

PHKG2 (UniProt P15735)
inactive: [2] 0.088 | [3] -0.064 | [4] -0.035 | entinostat -0.007 | vorinostat 0 | citarinostat 0.122 | silmitasertib 0.052 | [5] 0.023 | [6] -0.045
active: [1] 0.417

PFKFB4 (UniProt Q16877)
inactive: [1] -0.049 | [2] 0.028 | [3] -0.079 | [4] -0.073 | entinostat -0.022 | vorinostat 0.009 | citarinostat 0.043 | silmitasertib 0.012 | [5] -0.013 | [6] -0.033

PICALM (UniProt H0YEY8)
inactive: [1] -0.08 | [2] -0.181 | [3] -0.142 | [4] -0.03 | entinostat -0.019 | vorinostat 0.031 | citarinostat 0.091 | silmitasertib 0.047 | [5] -0.068 | [6] 0.078

Quoted from above (two entries):
PGRMC2 isoform 2 (UniProt O15173)
inactive: [1] 0.046 | [2] 0.062 | [3] 0.079 | [4] 0.073 | entinostat 0.016 | vorinostat 0.008 | citarinostat 0.017 | silmitasertib -0.024 | [5] -0.073 | [6] 0

PFDN6 (UniProt O15212)
inactive: [1] 0.031 | [2] -0.002 | [3] 0.025 | [4] 0.06 | entinostat 0.013 | vorinostat 0.018 | citarinostat 0.075 | silmitasertib -0.036 | [5] 0.062 | [6] -0.019

Additional records:

PIH1D1 (UniProt Q9NWS0)
inactive: [1] -0.017 | [2] 0.018 | [3] -0.078 | [4] -0.025 | entinostat 0.03 | vorinostat 0.074 | citarinostat 0.041 | silmitasertib -0.025 | [5] 0.085 | [6] 0.005

PIGQ (UniProt Q9BRB3)
inactive: [1] 0.037 | [2] 0.132 | [3] -0.298 | [4] 0.042 | entinostat -0.065 | vorinostat 0.108 | citarinostat -0.09 | silmitasertib 0.101 | [5] -0.439 | [6] 0.146

PLBD2 (UniProt Q8NHP8)
inactive: [1] -0.002 | [2] 0.049 | [3] -0.091 | [4] -0.004 | entinostat -0.008 | vorinostat -0.073 | citarinostat 0.003 | silmitasertib 0.017 | [5] 0.001 | [6] -0.006

PFDN4 (UniProt Q9NQP4)
inactive: [1] 0.001 | [2] 0.012 | [3] 0.108 | [4] 0.054 | entinostat -0.003 | vorinostat -0.074 | citarinostat -0.079 | silmitasertib -0.034 | [5] -0.05 | [6] -0.012

PLCG1 isoform 2 (UniProt P19174)
inactive: [1] 0.01 | [2] -0.193 | [3] -0.197 | [4] -0.109 | entinostat 0.04 | vorinostat -0.003 | citarinostat 0.059 | silmitasertib 0.01 | [5] 0 | [6] -0.066

PICALM (UniProt Q13492)
inactive: [1] -0.021 | [2] -0.029 | [3] -0.066 | [4] -0.023 | entinostat 0.004 | vorinostat -0.002 | citarinostat 0.026 | silmitasertib -0.019 | [5] -0.081 | [6] -0.028

PGAM5 (UniProt Q96HS1)
inactive: [1] 0.068 | [2] 0.066 | [3] 0.194 | [4] 0.04 | entinostat -0.006 | vorinostat 0.019 | citarinostat -0.098 | silmitasertib 0.13 | [5] 0.187 | [6] -0.093

PGGT1B (UniProt P53609)
inactive: [1] -0.048 | [2] -0.014 | [3] -0.062 | [4] -0.021 | entinostat -0.047 | vorinostat -0.046 | citarinostat 0.038 | silmitasertib 0.021 | [5] 0.02 | [6] -0.042

PKLR (UniProt P30613)
inactive: [1] 0.03 | [2] 0.009 | [3] 0.005 | [4] 0.052 | entinostat -0.021 | vorinostat 0.016 | citarinostat 0.018 | silmitasertib -0.034 | [5] -0.026 | [6] 0.005

PI4K2A (UniProt Q9BTU6)
inactive: [1] 0.033 | [2] 0.204 | [3] -0.152 | [4] -0.05 | entinostat -0.013 | vorinostat 0.039 | citarinostat 0.072 | silmitasertib -0.012 | [5] -0.05 | [6] 0.003

PIK3R4 (UniProt Q99570)
inactive: [1] -0.036 | [2] 0.056 | [3] 0.009 | [4] -0.046 | entinostat -0.02 | vorinostat -0.039 | citarinostat 0.016 | silmitasertib 0.043 | [5] 0.01 | [6] 0.031

PLAA (UniProt Q9Y263)
inactive: [1] -0.022 | [2] -0.063 | [3] -0.118 | [4] -0.081 | entinostat 0.033 | vorinostat 0.111 | citarinostat 0.029 | silmitasertib 0.025 | [5] -0.116 | [6] -0.092

PKM (UniProt P14618)
inactive: [1] 0.01 | [2] -0.029 | [3] 0.011 | [4] -0.025 | entinostat -0.013 | vorinostat -0.009 | citarinostat 0.016 | silmitasertib -0.016 | [5] -0.032 | [6] -0.02

PHAX (UniProt Q9H814)
inactive: [1] 0.008 | [2] -0.084 | [3] -0.003 | [4] 0.013 | entinostat -0.022 | vorinostat -0.006 | citarinostat 0.041 | silmitasertib 0.092 | [5] 0.046 | [6] -0.029

PIR (UniProt O00625)
active: vorinostat -0.625 | [6] 0.253
inactive: [1] -0.047 | [2] -0.053 | [3] -0.195 | [4] -0.024 | entinostat -0.022 | citarinostat -0.014 | silmitasertib -0.038 | [5] -0.012

PIN4 isoform 2 (UniProt Q9Y237)
inactive: [1] -0.089 | [2] 0.005 | [3] -0.026 | [4] -0.033 | entinostat -0.014 | vorinostat -0.019 | citarinostat 0.035 | silmitasertib 0.006 | [5] -0.063 | [6] -0.033
